US5834427A, “Casein phosphopeptide, casein containing same and process for the preparation thereof” (Han; Sang Kee, priority 1995, dated 1998)
Not every detail of the peptide structures is certain; ends, links or a residue may be inferred. Non-standard residues stand in square brackets, D forms with d. Residues, ends and D or L forms follow the SMILES beside them. pS = N[C@@H](COP(=O)(O)O)C(=O)O

Experiment: Efficacy test for calcium solubilizing effect in vivo (soluble calcium in small intestine contents, atomic absorption spectrometer)
Design: species or system Wister Rats
Details: CPP feed; controlled diet including 1 wt % CPP for 1.5 hours; measured one hour after feeding; mean ± standard deviation
Procedure: Efficacy test for calcium solubilizing effect In vivo
Forty Wister Rats weighing about 120 g on an average were supplied with a controlled diet consisting of 24 wt % of crude proteins, 5 wt % of crude fats, 60 wt % of starches, 5 wt % of crude fibers, 5 wt % of minerals and 1 wt % of vitamins for a week and then starved for 24 hours. The rats were divided into 4 groups, each group including 10 rats.
Rats of the first group were supplied with a controlled diet including 10 wt % of the beta-casein H for 1.5 hours.
Rats of the second group were supplied with a controlled diet including 10 wt % of a conventional beta-casein for 1.5 hours.
Rats of the third group were supplied with a controlled diet including 1 wt % of the CPP in accordance with the present invention for 1.5 hours.
Rats of the fourth group were supplied with a controlled diet including 1 wt % of the conventional CPP for 1.5 hours.
All rats were allowed to freely have the controlled diets as much as they can. One hour after the completion of the above feeding, all rats were anesthetized, and the small intestines were excised therefrom. The small intestines were washed with a saline solution and then divided into two parts, i.e, the upper part and the lower part.
Thereafter, the contents in the small intestine were isolated, homogenized and centrifugated. A calcium in the supernant was measured three times by an atomic absorption spectrometer (Perkin Elmer Co.).

CC[C@H](C)[C@H](NC(=O)[C@H](CCC(=O)O)NC(=O)CNC(=O)[C@@H]1CCCN1C(=O)[C@@H](NC(=O)[C@H](CC(N)=O)NC(=O)[C@H](CC(C)C)NC(=O)[C@H](CCC(=O)O)NC(=O)[C@H](CCC(=O)O)NC(=O)[C@H](CC(C)C)NC(=O)[C@H](CCC(=O)O)NC(=O)[C@@H](N)CCCNC(=N)N)C(C)C)C(=O)N[C@H](C(=O)N[C@@H](CCC(=O)O)C(=O)N[C@@H](COP(=O)(O)O)C(=O)N[C@@H](CC(C)C)C(=O)N[C@@H](COP(=O)(O)O)C(=O)N[C@@H](COP(=O)(O)O)C(=O)N[C@@H](COP(=O)(O)O)C(=O)N[C@@H](CCC(=O)O)C(=O)N[C@@H](CCC(=O)O)C(=O)N[C@@H](CO)C(=O)N[C@H](C(=O)N[C@H](C(=O)N[C@@H](CCCNC(=N)N)C(=O)O)[C@@H](C)O)[C@@H](C)CC)C(C)C [conventional CPP, reference compound] (H-RELEELNVPGEIVE[pS]L[pS][pS][pS]EESITR-OH)
Calcium concentration in the small intestine, Lower part: 39.33 ± 2.8 ppm | Calcium concentration in the small intestine, Total: 55.38 ± 2.1 ppm | Calcium concentration in the small intestine, Upper part: 16.05 ± 1.3 ppm
